In all, about 1,400 compounds went through this assay and fewer than 10 were called active. Roughly 8% stayed inconclusive and do not appear here. The call rests on the fitted dose curve; in most records, active means well fitted curve in the direction sought with a large enough effect; inconclusive means small, poorly fitted or top-dose-only effect, or another doubt; inactive means no such curve, though single readings can be large or run the other way. Some of the results follow.
Molecular target: Transient receptor potential cation channel subfamily V member 1 (Homo sapiens) (UniProt Q8NER1)
Test: qHTS Assay for Compounds that Act as Potentiators of the Vanilloid Receptor 1: Hit Validation; further: % of control where 0% means no effect
Conditions: TRPV1-expressing cells, Fluo-8 calcium influx, capsaicin EC20; series mostly up to 42.1 µM; activity change, positive = potentiation: at the top concentration
Description: The transient receptor potential ion channel, family V, number 1, (TRPV1) is one of the most important molecular transducers of painful stimuli and a potential target for analgesic drug development. Although recent clinical trials with orthosteric antagonists have not produced a successful drug because of a hyperthermia side effect and their tendency to block thermal noxious pain, this ion channel is undeniably well placed in the pain pathway, and the idea of blocking pain signals before they enter the CNS is an excellent concept and of proven efficacy when TRPV1 agonists are used. We propose a new approach involving allosteric modulation to impose an activity-dependent constraint within the context of inflammation and tissue damage that would alter the responsiveness of the channel in a way that an orthosteric vanilloid antagonist cannot achieve. We believe that the allosteric modulator approach has not been explored for this target. The main goal of this proposal is to identify additional, new, potent allosteric modulators of TRPV1 that can be used to investigate TRPV1 function. Our recent report provides evidence of proof of concept, but the compounds are just at the edge of utility in terms of potency. […] The question of whether they can be used as analgesic agents is complex, but if suitable compounds are identified then testing for analgesic properties will be conducted. Compounds identified as agonists were re-tested in the primary screen for hit validation. NIH Chemical Genomics Center [NCGC] NIH Molecular Libraries Probe Centers Network [MLPCN] MLPCN Grant: MH089480 Assay Submitter (PI): Michael Iadarola, National Institute of Dental and Cranofacial Research
Upon TRPV1 activation in TRPV1 cells, the channel opens and extracellular cations flow through the channel into the cytosol. A calcium binding dye (Fluo-8) becomes fluorescent when bound to calcium. This dye is pre-loaded into cells and is used as a marker for calcium influx. The amount of accumulated calcium is precisely quantified using the FDSS kinetic reader and the calcium dye. For the HTS assay, freshly prepared cells are plated at a density of 2000/well in 3 ul medium in 1536-well plates and cultured overnight at 35.5C. Cells will be loaded with 1 ul of the homogeneous calcium dye (ABD Bioquest) at room temperature for 40 to 90 minutes. Plates will be loaded into the FDSS kinetic reader and a 1 sec / cycle for 10 second baseline signal will be measured. Compound library will then be added with a pintool at 23 nl and measured kinetically for 3 minutes. This portion of the read is considered the agonist portion of the screen. Following the 3 minutes of incubation, an on board pipettor will deliver 1 ul of capsaicin for a final concentration equal to the EC20. Signal will be measured kinetically for an additional 2 minutes. This portion of the read is considered the allosteric enhancer portion of the screen. The FDSS reader has a standard filter set capable of measuring calcium bound Fluo-8 (ex=480 and em=520 nm).

The chains behind the UniProt entries cited, without tags or fusion partners.
UniProt Q8NER1, whole entry, looked up: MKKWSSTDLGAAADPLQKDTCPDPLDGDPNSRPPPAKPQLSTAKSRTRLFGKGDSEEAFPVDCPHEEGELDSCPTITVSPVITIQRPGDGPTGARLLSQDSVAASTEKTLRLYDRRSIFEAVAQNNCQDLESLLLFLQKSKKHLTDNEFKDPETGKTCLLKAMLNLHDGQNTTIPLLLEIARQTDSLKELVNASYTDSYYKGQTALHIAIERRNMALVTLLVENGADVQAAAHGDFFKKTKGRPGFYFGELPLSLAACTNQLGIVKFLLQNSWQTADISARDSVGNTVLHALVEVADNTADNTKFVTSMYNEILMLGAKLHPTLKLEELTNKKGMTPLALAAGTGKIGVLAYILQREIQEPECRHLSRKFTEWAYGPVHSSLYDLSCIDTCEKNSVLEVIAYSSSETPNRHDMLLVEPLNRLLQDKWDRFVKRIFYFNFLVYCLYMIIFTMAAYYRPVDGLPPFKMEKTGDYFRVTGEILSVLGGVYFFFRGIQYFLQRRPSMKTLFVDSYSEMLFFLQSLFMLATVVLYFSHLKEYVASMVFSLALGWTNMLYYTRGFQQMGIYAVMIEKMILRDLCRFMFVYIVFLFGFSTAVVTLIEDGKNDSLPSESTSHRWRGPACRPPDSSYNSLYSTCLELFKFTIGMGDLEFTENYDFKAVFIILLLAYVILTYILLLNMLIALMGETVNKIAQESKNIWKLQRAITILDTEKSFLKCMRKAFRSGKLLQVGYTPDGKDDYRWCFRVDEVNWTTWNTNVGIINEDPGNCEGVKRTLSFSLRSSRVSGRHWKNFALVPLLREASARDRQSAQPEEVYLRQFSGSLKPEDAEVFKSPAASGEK

Activity change, positive = potentiation, inactive:
Cc1ccc(NC(=O)c2cc3c(s2)CCCC3)cc1 -39.6%
CC1CCN(C2=NC(=O)/C(=C/c3ccccc3F)S2)CC1 -39.3%
O=C1NC(Cc2c[nH]c3ccccc23)C(=O)N1Cc1ccc(CN2C(=O)NC(Cc3c[nH]c4ccccc34)C2=O)cc1 (stereo unspecified) 9.74%
CCCCC(=O)Nc1nc2c(s1)COc1ccccc1-2 -25%
Cc1cc(CNC(=S)Nc2ccc(Br)cc2Cl)nn1C -37.7%
CCN(CC)S(=O)(=O)c1ccc(/C=C/C(=O)Nc2ccc(N3CCOCC3)cc2)cc1 -34.5%
CCC1(C)Cc2c(sc(NC(=O)CCC(=O)O)c2C#N)CO1 (stereo unspecified) -7.36%
Nc1nnc(SCc2cccnc2)s1 -7.07%
CC1=C(C)/C(=N\OS(=O)(=O)c2ccc(C)cc2)C=CC1=O -27.4%
O=C(Nc1ccccc1N1CCN(c2ccccc2)CC1)C12CC3CC(CC(C3)C1)C2 -24.7%
CN(C(N)=S)c1ccccc1 -17.3%
Nc1ccc(C(=O)Nc2ccccc2N)cc1 -7.41%
CC(C)(C)NC(=O)CSc1nnc(-c2ccncc2)o1 -0.625%
COC(=O)c1cc(NC(=O)Nc2ccccc2)ccc1Cl -37.8%
CCOC(=O)[C@H]1[C@H]2COc3ccc(OC)cc3[C@@H]2N2C(=O)c3cc(F)c(F)cc3NC(=O)[C@@]12C -38.2%
CCOC(=O)[C@H]1[C@H]2COc3ccc(OC)cc3[C@@H]2N2C(=O)c3cc(OC)ccc3NC(=O)[C@@]12C -39.5%
CCc1cccc(C)c1NC(=S)N(CCCN1CCN(C)CC1)Cc1cccs1 -8.28%
COc1ccc(CC(=O)N2CCN(c3cccc(Cl)c3)CC2)cc1OC -36.8%
COc1ccc(CCN2C(=O)c3[nH]nc(-c4ccccc4O)c3C2c2cccc(Cl)c2)cc1 (stereo unspecified) 1.93%
Cc1nc([N+](=O)[O-])c(C(=O)OCc2ccccc2)n1C -4.18%
CC(C)Cc1cc(C(=O)Nc2sc3c(c2C#N)CCC3)no1 -1.28%
CC(C)N(Cc1nc(-c2ccc(Cl)cc2)no1)C(=O)CCC1CCCC1 -8.72%
COC(=O)COc1ccc2occ(C(C)=O)c2c1 -2.24%
CCCCCCCCCCCCCCCC(=O)NCCc1c[nH]c2ccccc12 -3%
NS(=O)(=O)c1ccc(Cl)cc1[N+](=O)[O-] -11.8%
COc1ccc(NC(=O)C2C3C=CC(O3)C2C(=O)O)cc1 (stereo unspecified) -2.88%
O=C(O)c1ccc(Br)cn1 -5.55%
N#C/C(=C\c1ccc(O)cc1)C(=O)NCc1cccc(Cl)c1 -6.49%
CC(=O)c1ccc(Nc2ncnc3c2oc2ccccc23)cc1 -38.7%
CCCCNc1ncnc2c1nnn2Cc1ccccc1Cl -5.11%
CCOCCCn1c(=S)[nH]c2cc(C(=O)NCCCN(CC)CC)ccc2c1=O -6.38%
CCCOc1ccc(CNC(=S)Nc2ccccc2)cc1Cl -37.7%
O=C(NCCCc1ccccc1)c1ccc(F)cc1 -38.9%
CCOc1ccc(NS(=O)(=O)c2ccc(OCC(=O)NCCCOC)cc2)cc1 2.17%
CN1CCN(c2ccccc2NC(=O)c2ccc([N+](=O)[O-])o2)CC1 -7.02%
COc1cccc(/C=N/n2c(SC)nnc2-c2ccccc2)c1O -38.9%
Cc1ccc(NC(=O)CNCc2ccccc2Cl)cc1S(=O)(=O)N(C)C 4.09%
CC1CCN(C(=O)/C=C/c2ccc(C(C)(C)C)cc2)CC1 -38.1%
COc1ccc(CNC(=O)CCSc2ccc(F)cc2)cc1OC -34.4%
CCC1CCCCN1CCCNC(=O)c1cc2c(=O)oc3ccc(C)cc3c2s1 (stereo unspecified) -1.36%
Cc1nc(N2CCOCC2)c2c(C)c(C(=O)Nc3ccccc3C(F)(F)F)sc2n1 -37.7%
NCCCn1c(C(=O)c2cc(Cl)c(N)c(Cl)c2)c2ccccc2[n+]1[O-] 2.46%
O=C(COC(=O)/C=C/C(=O)N1CCN(c2ccccc2)CC1)NCc1ccc(F)cc1 -6.3%
Cc1cccn2c(=O)c3cc(C(=O)NCC4CCCO4)c(=N)n(C4CCCCC4)c3nc12 (stereo unspecified) -24.9%
Cc1ccc2nc(NC(=O)CS(=O)(=O)Cc3ccccc3)sc2c1 -6.24%
Cc1cc(C)cc(C(=O)Nn2cnnc2)c1 -5.31%
Clc1nc2ccccc2nc1-c1ccccc1 -15.2%
CS(=O)(=O)N(CC(=O)N1CCc2ccccc2C1)Cc1ccccc1 -5.56%
CC(OC(=O)CC1CCCCC1)C(=O)Nc1ccc(F)cc1 (stereo unspecified) -39%
CCCCOc1ccc(/C=C/C2=CC(C)(C)NC(=S)N2)cc1OCC -7.3%
Cc1cc(C)c2nc(-c3ccccn3)cc(C(=O)NCc3cc(C)n(C)n3)c2c1 -32.2%
O=C(Nc1ncnc2sc3c(c12)CCC3)c1ccco1 -6.91%
O=C(CNc1cccc(C(F)(F)F)c1)N/N=C/C1CCCCC1 -3.34%
Cc1ccc(N2CCN(C(=O)N3CCOCC3)CC2)c(C)c1 -39.1%
Nc1nn(S(=O)(=O)c2cccc3nsnc23)cc1-c1ccc(Br)cc1 -5.21%
CC(=O)c1cccc(NC(=O)/C(=C\c2cccnc2)NC(=O)c2ccc(C)cc2)c1 3.38%
CC(=O)c1cccc(NC(=O)/C=C/c2ccc([N+](=O)[O-])s2)c1 -33.4%
O=[N+]([O-])c1ccc(/C=C/c2ccc3cccc([N+](=O)[O-])c3n2)cc1 -1.42%
COc1ccc(-c2cc(C(F)F)n3ncc(C(=O)Nc4cc(C)on4)c3n2)cc1 -5.22%
CCCOc1ccc(/C=C/c2[nH]c(=O)[nH]c(=O)c2[N+](=O)[O-])cc1OCC -3.16%
Cc1oc(-c2ccc(Cl)cc2)nc1CN1CCC(C(=O)N2CCN(Cc3ccccc3)CC2)CC1 25.8%
COc1ccc(C(=O)CC(=O)C(=O)Nc2cccc(C(C)=O)c2)cc1 -1.31%
O=C(NC(NC(=S)Nc1ccccc1C(=O)O)C(Cl)(Cl)Cl)c1ccccc1 (stereo unspecified) -13.4%
COC(=O)C(C)(C)ONC(=O)Nc1ccccc1Cl -5.01%
CCN(CC(=O)Nc1ccc2c(c1)OCCO2)C(=O)c1ccc(C(F)(F)F)cc1 -5.62%
O=C(c1cc(-c2ccc(Cl)cc2Cl)on1)N1CCOCC1 -39.2%
O=C(NCCCn1ccnc1)C(=O)NCC1OCCN1S(=O)(=O)c1ccccc1 (stereo unspecified) -8.01%
Cc1ccc(NC(=O)CCS(=O)(=O)c2ccc3c(c2)NC(=O)C(C)S3)cc1Cl (stereo unspecified) 1.02%
COc1ccc(CCNc2nc(-c3cccnc3)nc3ccccc23)cc1OC -32.4%
CS(=O)(=O)N(CC(=O)NCc1ccco1)c1ccc(OCc2ccccc2)cc1 -4.78%
CC(C)(C)Cc1nnc(NC(=O)CSc2ccccc2)s1 -6.48%
c1ccc2c(c1)oc1c(Nc3ccc(CN4CCOCC4)cc3)ncnc12 -34.7%
Cc1nc2ccccc2cc1OCc1ccc(Cl)cc1 -38.1%
CCOC(=O)c1ccc(NC(=O)/C=C/c2cccs2)cc1 -35.9%
CC(C)C(=O)c1cn(CC(=O)N2CCCc3ccccc32)c2ccccc12 -5.07%
COc1ccc2c(c1)sc(=N)n2CC(=O)Nc1cc(C)cc(C)c1 -8.63%
CC(Oc1cccc(Cl)c1)C(=O)Nc1nc(-c2ccccn2)cs1 (stereo unspecified) -5.61%
CC(C)c1ccc(NC2CCCN(C(=O)c3cccc4nccnc34)C2)cc1 (stereo unspecified) -27.2%
O=C(c1cc2cc(Br)cc(Br)c2oc1=O)N1CCOCC1 -35.7%
Cc1ccc(S(=O)(=O)/N=C(/c2ccccc2)N(C)c2ccc(O)cc2)cc1 -11%
c1ccc2c(c1)c1c3n2CCNC3CCC1 (stereo unspecified) -5.1%
O=C(/C=C\c1cn(-c2ccccc2)nc1-c1ccc2c(c1)OCCO2)N1CCOCC1 -39.2%
CCN1CCN(Cc2nc3c(c(=O)n(C)c(=O)n3C)n2CC(=O)c2ccccc2)CC1 -9.16%
CC(=O)NC(CC(=O)NCCN1C(=O)S/C(=C\c2ccccc2)C1=O)c1ccccc1 (stereo unspecified) -8.32%
O=C(NCc1cccs1)C1CCC(CNS(=O)(=O)c2cccc3nsnc23)CC1 (stereo unspecified) -4.82%
COc1cccc(/C=C/C(=O)Nc2cccc(C(C)=O)c2)c1OC -16.5%
CCOc1ccccc1NC(=O)CCc1nnc2ccc(N3CCC(C)CC3)nn12 -6.18%
Cc1ccc(S(=O)(=O)N(CC(=O)N2CCOCC2)CC(=O)N2CCOCC2)cc1 -6.45%
Cn1cc(Br)c(C(=O)n2cc(Br)cn2)n1 -5.04%
O=C(Nc1nc(-c2ccccc2)cs1)c1ccc(Br)o1 -37.4%
CN(C)/C=C/C(=O)c1nnn(C2CCCCC2)c1NC1CCCCC1 -35.6%
COc1ccc(C(C#N)c2cnccn2)cc1OC (stereo unspecified) 4.57%
COc1ccccc1-n1c(SCC(N)=O)nc2sc3c(c2c1=O)CCC3 -7.03%
COc1ccccc1NS(=O)(=O)c1cc(NC(=O)c2cccs2)ccc1N1CCCC1 -3.26%
[O-]/C(=C(\C(=S)Nc1ccc(Cl)cc1)[n+]1ccccc1)c1ccc(OC(F)F)cc1 -7.02%
Cc1ncsc1CCC(=O)N1CCCC(Nc2ccc(C(C)C)cc2)C1 (stereo unspecified) -39.8%
Cc1cc(NC(=O)c2cc(-c3ccccc3Cl)nc3ccccc23)no1 -0.359%
CC(C)Sc1ccc(C(=O)Nc2ccc(F)cc2F)cn1 -31.7%
COC(=O)c1nnn(-c2nc(N(C)C)nc(N(C)C)n2)c1C 4.29%
CCC(Sc1ccccn1)C(=O)Nc1nnc(C)s1 (stereo unspecified) -15.1%
COc1ccc(C=C2C(=O)c3ccccc3C2=O)cc1O 3.15%
O=C(N/N=C\c1ccc(F)cc1)c1ccc(F)cc1 -35.9%
CCOC(=O)c1ccc(Nc2nnc(C)c3ccccc23)cc1 -37.7%
O=C(Nc1ccc(C(F)(F)F)cc1)c1ccc2ncsc2c1 -39%
O=C(CN1CCOCC1)Nc1nc(-c2ccccc2)cs1 -36.1%
CCOc1ccc(C(=O)OCC(=O)N2CC(C)OC(C)C2)cc1OCC (stereo unspecified) 2.03%
COc1ccc(CCNC(=O)c2noc3c2CCCC3)cc1OC -9.36%
COc1ccc(/C=C(\NC(=O)c2ccccc2)C(=O)NCc2cccnc2)cc1 -2.1%
O=C(Cc1ccc(F)cc1)Nc1nc(-c2ccc(F)cc2)cs1 -37.2%
Clc1cc(Br)ccc1OCCOCCN1CCOCC1 -0.348%
Cc1cc(C)cc(NC(=O)COc2ccc3c(C)c(Cc4ccccc4)c(=O)oc3c2)c1 5.36%

Reprinted from the entries so far, 4 compounds:
Activity change, positive = potentiation, inactive:
CCC(Sc1ccccn1)C(=O)Nc1nnc(C)s1 (stereo unspecified) -15.1%
COc1ccc(C=C2C(=O)c3ccccc3C2=O)cc1O 3.15%
O=C(N/N=C\c1ccc(F)cc1)c1ccc(F)cc1 -35.9%
CCOC(=O)c1ccc(Nc2nnc(C)c3ccccc23)cc1 -37.7%

An excerpt from above in order of SMILES length, low to high.
Activity change, positive = potentiation, inactive:
CN(C(N)=S)c1ccccc1 -17.3%
O=C(c1cc(-c2ccc(Cl)cc2Cl)on1)N1CCOCC1 -39.2%
COc1ccc2c(c1)sc(=N)n2CC(=O)Nc1cc(C)cc(C)c1 -8.63%
